These are yes or no findings as the source states them, for the method shown. In cells and extracts the contact can be indirect. Some results given as binding are weak or reduced against the parent protein; the word gives no strength.
Target: Flag-tagged zinc finger homeobox 4 (Zfhx4) (mouse) (UniProt Q9JJN2)
Test: co-IP; lysates of transfected cells (293FT for Flag-Zfhx4 with 6xMyc-Osterix); lysis buffer 20 mM HEPES pH 7.4, 150 mM NaCl, 1% Triton X-100; anti-Flag antibody 16 h at 4 °C, Dynabeads Protein G; five washes with ice-cold PBS; western blot with anti-Myc

Chains of the proteins cited; added tags and fusions are not shown.
UniProt Q9JJN2: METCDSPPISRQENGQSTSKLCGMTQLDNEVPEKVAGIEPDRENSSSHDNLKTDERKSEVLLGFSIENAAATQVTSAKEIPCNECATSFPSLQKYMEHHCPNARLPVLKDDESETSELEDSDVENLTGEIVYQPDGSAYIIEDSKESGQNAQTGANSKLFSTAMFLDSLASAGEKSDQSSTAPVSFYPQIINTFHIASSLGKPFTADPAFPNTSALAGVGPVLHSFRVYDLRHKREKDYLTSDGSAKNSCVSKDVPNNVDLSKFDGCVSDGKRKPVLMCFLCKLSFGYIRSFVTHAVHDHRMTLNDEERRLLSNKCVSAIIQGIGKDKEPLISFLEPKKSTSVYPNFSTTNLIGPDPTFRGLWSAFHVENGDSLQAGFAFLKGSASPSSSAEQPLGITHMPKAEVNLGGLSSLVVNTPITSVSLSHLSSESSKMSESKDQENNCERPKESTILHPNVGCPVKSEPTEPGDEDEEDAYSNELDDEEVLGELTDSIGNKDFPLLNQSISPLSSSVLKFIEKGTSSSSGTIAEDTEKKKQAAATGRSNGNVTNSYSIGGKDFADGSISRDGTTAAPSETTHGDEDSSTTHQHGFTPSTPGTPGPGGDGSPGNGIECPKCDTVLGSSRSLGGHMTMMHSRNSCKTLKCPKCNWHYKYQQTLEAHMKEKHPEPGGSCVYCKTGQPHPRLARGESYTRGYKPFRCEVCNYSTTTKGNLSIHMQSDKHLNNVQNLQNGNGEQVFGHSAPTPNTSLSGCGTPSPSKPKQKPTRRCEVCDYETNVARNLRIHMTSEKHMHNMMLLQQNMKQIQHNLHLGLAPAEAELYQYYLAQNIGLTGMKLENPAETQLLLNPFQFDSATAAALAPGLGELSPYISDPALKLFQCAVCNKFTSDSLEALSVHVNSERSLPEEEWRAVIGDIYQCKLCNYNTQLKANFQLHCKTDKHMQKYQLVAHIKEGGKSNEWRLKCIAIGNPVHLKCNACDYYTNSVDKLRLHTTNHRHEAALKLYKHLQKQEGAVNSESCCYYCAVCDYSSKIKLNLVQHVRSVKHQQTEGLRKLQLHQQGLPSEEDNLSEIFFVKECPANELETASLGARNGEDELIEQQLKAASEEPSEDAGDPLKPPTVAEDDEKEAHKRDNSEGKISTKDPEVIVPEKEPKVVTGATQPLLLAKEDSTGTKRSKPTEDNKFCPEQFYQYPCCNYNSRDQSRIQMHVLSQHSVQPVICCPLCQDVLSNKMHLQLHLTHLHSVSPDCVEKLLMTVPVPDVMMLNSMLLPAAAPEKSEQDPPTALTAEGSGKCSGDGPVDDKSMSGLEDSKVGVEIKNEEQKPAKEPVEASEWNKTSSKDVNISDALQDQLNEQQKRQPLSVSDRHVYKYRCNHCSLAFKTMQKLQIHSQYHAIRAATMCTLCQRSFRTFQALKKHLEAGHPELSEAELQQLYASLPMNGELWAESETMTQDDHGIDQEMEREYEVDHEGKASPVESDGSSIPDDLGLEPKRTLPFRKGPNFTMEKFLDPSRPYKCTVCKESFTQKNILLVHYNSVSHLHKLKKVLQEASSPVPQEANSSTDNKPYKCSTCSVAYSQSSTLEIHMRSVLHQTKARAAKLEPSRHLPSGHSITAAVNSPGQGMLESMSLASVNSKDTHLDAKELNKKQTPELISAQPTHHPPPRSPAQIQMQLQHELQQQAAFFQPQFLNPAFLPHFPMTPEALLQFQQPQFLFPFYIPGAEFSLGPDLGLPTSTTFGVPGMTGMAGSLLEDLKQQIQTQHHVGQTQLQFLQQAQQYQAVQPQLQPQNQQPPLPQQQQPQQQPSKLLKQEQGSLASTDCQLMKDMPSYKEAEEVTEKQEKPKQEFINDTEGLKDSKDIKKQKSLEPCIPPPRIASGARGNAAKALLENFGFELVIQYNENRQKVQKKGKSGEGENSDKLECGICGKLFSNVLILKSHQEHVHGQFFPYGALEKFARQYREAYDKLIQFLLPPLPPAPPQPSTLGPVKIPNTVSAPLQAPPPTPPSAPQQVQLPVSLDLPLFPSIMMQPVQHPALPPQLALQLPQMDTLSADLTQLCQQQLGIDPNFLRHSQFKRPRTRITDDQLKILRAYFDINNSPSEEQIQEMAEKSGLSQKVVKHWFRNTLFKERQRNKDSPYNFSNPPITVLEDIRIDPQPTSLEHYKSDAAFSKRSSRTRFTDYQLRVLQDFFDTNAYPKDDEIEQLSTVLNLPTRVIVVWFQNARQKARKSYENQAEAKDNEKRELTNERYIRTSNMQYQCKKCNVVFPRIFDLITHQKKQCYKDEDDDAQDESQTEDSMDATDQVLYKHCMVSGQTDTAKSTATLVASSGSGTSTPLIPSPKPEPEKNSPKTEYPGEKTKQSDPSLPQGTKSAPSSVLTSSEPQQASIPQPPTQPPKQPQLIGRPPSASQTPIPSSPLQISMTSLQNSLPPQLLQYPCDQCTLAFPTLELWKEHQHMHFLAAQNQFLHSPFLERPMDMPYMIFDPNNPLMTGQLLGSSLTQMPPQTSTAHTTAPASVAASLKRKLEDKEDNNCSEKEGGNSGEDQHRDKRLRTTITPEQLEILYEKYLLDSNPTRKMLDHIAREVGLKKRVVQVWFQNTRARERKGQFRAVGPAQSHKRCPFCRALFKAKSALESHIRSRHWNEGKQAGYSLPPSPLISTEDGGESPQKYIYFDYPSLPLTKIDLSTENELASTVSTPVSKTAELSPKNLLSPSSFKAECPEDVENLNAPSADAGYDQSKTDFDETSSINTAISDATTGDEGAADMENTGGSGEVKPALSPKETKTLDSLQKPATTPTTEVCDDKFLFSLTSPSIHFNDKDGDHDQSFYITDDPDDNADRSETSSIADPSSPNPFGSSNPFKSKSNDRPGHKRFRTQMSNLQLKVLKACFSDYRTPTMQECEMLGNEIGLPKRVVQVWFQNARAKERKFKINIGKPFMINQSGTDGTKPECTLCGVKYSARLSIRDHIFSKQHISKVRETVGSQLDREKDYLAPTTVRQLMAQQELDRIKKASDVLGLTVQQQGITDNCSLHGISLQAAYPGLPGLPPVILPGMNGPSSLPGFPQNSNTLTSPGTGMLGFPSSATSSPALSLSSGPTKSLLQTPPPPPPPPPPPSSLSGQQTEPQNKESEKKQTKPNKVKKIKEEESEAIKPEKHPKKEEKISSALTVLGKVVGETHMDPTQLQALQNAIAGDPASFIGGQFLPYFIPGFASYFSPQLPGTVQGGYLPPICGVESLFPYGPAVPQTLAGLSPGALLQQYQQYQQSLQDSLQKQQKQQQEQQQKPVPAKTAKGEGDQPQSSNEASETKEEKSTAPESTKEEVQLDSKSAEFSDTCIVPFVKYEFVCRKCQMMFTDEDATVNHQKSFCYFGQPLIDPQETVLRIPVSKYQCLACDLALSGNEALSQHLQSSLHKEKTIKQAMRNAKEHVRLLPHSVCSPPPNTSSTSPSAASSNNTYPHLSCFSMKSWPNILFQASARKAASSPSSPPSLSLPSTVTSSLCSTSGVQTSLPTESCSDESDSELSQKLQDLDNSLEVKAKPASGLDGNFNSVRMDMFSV
UniProt Q8VI67: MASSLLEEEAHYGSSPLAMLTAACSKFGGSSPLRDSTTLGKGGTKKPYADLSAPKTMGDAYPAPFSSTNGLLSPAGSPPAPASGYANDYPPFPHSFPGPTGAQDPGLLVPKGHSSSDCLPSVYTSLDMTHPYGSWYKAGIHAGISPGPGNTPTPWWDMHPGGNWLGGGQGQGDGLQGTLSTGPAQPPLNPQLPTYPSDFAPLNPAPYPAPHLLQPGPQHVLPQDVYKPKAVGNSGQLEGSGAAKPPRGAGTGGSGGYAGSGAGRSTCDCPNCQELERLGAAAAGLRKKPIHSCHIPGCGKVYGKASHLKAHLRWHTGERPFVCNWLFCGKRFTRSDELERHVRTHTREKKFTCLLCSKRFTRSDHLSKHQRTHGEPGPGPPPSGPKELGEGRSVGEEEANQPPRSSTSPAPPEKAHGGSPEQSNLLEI

- binding: binds
Substance: 6xMyc-Osterix (from UniProt Q8VI67 1-428)

— paper PMC8566502
